Measured values from the supplement of paper PMC10849652.
The other results are listed elsewhere or left out.

By UniProt entry, the sequences of proteins in these tests, tags left out. Where a name states a change or a piece, a line headed by the entry shows the natural chain unless it says otherwise.
UniProt Q6ZUT9: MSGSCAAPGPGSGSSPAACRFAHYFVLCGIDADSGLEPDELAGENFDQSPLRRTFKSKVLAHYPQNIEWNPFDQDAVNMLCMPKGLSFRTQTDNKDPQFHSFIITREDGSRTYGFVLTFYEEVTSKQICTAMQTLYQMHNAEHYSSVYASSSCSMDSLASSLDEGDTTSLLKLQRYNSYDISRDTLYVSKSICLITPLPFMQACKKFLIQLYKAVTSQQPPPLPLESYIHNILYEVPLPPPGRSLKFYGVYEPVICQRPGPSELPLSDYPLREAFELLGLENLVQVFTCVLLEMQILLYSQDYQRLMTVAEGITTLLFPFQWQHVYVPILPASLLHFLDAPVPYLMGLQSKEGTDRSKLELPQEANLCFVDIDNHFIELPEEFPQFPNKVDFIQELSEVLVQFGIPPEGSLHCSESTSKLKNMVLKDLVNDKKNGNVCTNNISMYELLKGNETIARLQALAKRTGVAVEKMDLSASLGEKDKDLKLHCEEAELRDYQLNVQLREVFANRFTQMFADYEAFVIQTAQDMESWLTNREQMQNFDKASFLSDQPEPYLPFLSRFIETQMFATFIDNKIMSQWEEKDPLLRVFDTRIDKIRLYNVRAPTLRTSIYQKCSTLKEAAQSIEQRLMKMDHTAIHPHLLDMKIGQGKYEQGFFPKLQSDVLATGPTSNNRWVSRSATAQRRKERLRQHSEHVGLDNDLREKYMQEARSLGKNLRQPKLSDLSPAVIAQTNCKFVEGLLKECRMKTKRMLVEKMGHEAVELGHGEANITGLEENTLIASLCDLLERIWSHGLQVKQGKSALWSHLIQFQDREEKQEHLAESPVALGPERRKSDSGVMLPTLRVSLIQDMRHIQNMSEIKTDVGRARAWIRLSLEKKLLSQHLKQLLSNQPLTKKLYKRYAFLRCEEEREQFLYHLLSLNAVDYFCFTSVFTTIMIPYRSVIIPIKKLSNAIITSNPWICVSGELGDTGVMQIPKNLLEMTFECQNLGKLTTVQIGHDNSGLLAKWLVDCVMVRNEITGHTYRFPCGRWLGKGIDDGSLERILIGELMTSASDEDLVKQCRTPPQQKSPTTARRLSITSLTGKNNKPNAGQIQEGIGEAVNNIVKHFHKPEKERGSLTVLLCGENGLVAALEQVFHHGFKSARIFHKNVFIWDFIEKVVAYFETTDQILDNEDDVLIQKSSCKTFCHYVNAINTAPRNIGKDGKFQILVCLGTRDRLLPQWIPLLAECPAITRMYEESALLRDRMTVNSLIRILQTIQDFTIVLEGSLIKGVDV
UniProt Q9Y4B6: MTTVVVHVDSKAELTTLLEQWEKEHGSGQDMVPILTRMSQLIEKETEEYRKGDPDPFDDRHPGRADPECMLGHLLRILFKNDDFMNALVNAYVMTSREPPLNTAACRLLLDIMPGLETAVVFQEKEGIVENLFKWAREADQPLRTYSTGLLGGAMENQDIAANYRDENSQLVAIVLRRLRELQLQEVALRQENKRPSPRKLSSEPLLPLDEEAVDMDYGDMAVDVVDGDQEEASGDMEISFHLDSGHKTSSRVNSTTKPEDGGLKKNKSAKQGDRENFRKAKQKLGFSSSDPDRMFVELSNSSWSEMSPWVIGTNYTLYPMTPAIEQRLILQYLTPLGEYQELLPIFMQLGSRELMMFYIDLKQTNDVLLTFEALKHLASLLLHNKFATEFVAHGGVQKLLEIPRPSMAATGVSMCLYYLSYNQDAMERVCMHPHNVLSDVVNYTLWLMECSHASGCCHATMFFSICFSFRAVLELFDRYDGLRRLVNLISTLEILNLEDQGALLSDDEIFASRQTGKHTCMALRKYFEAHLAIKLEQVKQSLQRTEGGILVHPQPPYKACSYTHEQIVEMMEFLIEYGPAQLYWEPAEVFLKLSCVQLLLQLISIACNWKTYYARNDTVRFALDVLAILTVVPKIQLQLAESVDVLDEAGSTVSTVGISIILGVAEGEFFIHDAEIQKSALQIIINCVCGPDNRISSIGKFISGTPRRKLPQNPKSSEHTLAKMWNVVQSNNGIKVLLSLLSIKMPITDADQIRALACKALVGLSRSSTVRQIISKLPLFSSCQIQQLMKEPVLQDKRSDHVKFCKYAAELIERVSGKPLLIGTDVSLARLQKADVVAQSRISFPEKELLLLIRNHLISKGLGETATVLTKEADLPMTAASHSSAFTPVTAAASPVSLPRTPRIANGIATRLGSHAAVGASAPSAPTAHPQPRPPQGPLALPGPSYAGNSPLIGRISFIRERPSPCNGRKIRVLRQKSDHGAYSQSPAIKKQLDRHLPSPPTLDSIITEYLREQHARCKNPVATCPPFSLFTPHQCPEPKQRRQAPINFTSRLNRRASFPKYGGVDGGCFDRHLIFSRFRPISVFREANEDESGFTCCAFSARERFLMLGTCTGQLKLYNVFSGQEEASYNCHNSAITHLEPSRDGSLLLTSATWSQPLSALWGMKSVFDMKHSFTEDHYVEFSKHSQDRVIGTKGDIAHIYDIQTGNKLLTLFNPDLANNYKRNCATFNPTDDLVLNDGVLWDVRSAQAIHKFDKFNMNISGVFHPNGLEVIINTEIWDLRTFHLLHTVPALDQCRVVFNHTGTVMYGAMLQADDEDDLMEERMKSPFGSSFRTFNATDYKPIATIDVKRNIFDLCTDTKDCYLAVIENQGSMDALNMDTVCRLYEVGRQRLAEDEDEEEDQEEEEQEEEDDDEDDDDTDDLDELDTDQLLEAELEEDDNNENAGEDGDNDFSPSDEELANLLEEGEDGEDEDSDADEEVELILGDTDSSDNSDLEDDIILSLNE
UniProt Q7L5Y6, whole entry, looked up: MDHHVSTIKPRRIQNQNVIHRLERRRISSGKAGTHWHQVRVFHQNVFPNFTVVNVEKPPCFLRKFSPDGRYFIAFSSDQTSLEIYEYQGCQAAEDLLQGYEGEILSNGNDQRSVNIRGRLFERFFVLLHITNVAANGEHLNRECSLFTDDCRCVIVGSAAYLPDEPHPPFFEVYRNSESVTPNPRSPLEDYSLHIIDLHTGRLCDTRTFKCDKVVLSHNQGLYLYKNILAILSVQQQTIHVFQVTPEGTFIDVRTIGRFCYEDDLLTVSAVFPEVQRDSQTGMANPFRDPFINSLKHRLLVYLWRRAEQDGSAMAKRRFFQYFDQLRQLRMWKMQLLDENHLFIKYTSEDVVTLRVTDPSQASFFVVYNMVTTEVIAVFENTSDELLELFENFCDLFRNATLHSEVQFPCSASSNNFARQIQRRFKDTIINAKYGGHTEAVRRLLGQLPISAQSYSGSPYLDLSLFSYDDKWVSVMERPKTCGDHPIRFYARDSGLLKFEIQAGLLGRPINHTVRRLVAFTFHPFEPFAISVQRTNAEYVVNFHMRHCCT
UniProt Q9NUU7: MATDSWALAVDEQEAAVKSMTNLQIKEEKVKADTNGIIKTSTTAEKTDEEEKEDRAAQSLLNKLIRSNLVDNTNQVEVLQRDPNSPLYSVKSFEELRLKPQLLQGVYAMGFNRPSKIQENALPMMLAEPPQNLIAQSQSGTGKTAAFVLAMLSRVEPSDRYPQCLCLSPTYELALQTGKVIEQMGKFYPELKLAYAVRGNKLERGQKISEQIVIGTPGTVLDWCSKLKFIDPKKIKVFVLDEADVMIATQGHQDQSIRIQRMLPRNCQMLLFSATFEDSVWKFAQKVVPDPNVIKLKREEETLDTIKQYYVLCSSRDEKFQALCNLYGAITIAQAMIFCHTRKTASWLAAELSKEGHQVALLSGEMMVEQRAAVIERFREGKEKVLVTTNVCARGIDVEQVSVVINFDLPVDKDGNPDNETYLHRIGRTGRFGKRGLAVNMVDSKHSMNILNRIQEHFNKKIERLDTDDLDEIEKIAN
UniProt Q8N8Z6: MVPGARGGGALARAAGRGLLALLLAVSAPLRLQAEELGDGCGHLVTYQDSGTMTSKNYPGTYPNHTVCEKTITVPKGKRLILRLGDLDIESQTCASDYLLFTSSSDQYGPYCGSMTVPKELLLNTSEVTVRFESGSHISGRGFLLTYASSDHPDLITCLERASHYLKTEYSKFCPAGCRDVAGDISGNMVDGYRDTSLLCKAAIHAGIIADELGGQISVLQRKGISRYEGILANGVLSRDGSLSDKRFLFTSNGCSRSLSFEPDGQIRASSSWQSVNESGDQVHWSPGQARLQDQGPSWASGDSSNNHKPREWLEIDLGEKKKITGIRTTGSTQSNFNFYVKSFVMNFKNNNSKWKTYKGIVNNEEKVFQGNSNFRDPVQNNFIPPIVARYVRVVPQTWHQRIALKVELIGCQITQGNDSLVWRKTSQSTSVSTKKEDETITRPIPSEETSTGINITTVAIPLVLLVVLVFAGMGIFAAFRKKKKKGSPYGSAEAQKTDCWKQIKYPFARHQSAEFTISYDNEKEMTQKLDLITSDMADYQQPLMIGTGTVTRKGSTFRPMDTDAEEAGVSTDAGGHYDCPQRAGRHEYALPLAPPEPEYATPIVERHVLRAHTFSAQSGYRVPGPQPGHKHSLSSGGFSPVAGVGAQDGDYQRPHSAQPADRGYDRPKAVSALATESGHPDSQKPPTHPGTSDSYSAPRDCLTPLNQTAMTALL
UniProt O94760: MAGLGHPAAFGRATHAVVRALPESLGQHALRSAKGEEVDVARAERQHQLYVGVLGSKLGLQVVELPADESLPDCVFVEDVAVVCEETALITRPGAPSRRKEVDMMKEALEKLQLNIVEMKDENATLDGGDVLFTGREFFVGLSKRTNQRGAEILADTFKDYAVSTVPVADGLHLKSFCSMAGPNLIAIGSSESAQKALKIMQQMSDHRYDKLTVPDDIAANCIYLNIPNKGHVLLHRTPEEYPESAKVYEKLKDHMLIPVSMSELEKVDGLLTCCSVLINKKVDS
UniProt Q96JK2, whole entry, looked up: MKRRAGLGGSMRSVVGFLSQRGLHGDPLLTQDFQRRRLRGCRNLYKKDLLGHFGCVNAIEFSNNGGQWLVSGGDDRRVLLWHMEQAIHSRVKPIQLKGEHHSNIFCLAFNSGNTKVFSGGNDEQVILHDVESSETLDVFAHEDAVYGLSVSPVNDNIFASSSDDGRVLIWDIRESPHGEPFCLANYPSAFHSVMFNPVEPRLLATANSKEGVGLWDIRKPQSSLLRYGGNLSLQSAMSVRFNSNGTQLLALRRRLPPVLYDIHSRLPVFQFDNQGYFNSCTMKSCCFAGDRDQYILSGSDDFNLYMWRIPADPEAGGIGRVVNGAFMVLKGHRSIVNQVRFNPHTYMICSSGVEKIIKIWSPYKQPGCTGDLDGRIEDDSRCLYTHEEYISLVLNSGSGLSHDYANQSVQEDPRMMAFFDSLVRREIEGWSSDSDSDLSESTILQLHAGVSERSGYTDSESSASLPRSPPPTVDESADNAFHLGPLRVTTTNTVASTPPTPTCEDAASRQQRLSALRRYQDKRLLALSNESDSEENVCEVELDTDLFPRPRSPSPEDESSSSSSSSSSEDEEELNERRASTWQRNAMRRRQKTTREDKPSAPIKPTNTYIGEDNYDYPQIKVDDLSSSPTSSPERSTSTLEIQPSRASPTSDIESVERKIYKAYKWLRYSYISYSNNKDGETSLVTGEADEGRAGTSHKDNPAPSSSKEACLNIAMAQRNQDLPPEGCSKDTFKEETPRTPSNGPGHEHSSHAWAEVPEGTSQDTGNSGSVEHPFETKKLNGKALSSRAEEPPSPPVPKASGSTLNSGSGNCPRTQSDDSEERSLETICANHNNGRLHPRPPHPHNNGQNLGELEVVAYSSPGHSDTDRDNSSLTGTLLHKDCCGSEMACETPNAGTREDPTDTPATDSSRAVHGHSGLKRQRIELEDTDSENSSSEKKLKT
UniProt Q8WVC6: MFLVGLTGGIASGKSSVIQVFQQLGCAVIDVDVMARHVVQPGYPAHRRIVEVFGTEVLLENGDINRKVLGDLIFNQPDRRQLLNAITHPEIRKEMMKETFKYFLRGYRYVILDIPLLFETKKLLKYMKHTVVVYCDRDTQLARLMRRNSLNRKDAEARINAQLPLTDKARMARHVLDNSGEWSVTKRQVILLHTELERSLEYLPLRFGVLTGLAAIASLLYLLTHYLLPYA
UniProt Q96QD5: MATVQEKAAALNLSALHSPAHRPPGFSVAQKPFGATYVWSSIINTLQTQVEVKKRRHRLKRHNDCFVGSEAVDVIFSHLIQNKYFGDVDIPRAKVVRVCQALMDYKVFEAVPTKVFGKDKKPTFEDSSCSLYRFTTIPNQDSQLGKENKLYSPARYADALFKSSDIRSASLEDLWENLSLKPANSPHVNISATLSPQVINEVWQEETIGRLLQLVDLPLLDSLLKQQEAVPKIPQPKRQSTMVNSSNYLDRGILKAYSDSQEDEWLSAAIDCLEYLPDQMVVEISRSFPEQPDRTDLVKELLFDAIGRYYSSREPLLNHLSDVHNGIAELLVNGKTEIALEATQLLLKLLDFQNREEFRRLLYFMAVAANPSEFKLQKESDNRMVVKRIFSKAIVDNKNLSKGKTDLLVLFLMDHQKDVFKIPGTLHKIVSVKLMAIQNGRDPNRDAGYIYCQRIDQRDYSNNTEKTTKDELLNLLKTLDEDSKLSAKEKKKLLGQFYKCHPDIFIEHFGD

Experiments:
Test in all cases: log2 fold change, soluble protein after heating vs DMSO (PISA); higher = thermal stabilisation; K562 lysate, 10 uM; active = over 0.2 and 3.5 SD of the protein, either way, in both replicates (recomputed)
nilotinib = compound: Cc1cn(-c2cc(NC(=O)c3ccc(C)c(Nc4nccc(-c5cccnc5)n4)c3)cc(C(F)(F)F)c2)cn1 [nilotinib]
In short: (§1)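 Thermal stability, expressed as log-two fold change relative to solvent controls, is given from duplicates. Crude K562 extract in PBS pH 7.4 with 1 mM MgCl2, at 1 mg/mL protein, was treated with 10 μM compound for 30 min and heated in aliquots for 3 min across 48°C-58°C. After pooling, adjustment to 0.5% NP-40 at 4°C and centrifugation at 21,000xg for 90 min, supernatant protein was measured by TMTpro 16plex LC-MS/MS with channel sums equalised.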

[1] = compound: Cc1nc(Nc2n[nH]c3c2CN(C(=O)N[C@H](CN(C)C)c2ccccc2)C3(C)C)c2sccc2n1
In short: as §1

dasatinib = compound: Cc1nc(Nc2ncc(C(=O)Nc3c(C)cccc3Cl)s2)cc(N2CCN(CCO)CC2)n1 [dasatinib]
In short: as §1

[2] = compound: Cc1ncc(-c2ccnc(Nc3ccc(S(C)(=O)=O)cc3)n2)n1C(C)C
In short: as §1

[3] = compound: Cn1cc(-c2ccc3c(c2)CCN3C(=O)Cc2cccc(C(F)(F)F)c2)c2c(N)ncnc21
In short: as §1

tipifarnib = compound: Cn1cncc1[C@@](N)(c1ccc(Cl)cc1)c1ccc2c(c1)c(-c1cccc(Cl)c1)cc(=O)n2C [tipifarnib]
In short: as §1

[4] = compound: NCC(=O)Nc1ccc(-n2nc(C(F)(F)F)cc2-c2ccc3c(ccc4ccccc43)c2)cc1
In short: as §1

entospletinib = compound: c1cn2cc(-c3ccc4cn[nH]c4c3)nc(Nc3ccc(N4CCOCC4)cc3)c2n1 [entospletinib]
In short: as §1

[5] = compound: NC1(c2ccc(-c3nc4ccn5c(=O)[nH]nc5c4cc3-c3ccccc3)cc2)CCC1
In short: as §1

vorinostat = compound: O=C(CCCCCCC(=O)Nc1ccccc1)NO [vorinostat]
In short: as §1

silmitasertib = compound: O=C(O)c1ccc2c(c1)nc(Nc1cccc(Cl)c1)c1ccncc12 [silmitasertib]
In short: as §1

quisinostat = compound: Cn1cc(CNCC2CCN(c3ncc(C(=O)NO)cn3)CC2)c2ccccc21 [quisinostat]
In short: as §1

[6] = compound: NC(=O)Nc1cc(-c2cccc(F)c2)sc1C(=O)N[C@H]1CCCNC1
In short: as §1

[7] = compound: NC(=O)c1cnc(N[C@@H]2CCCC[C@@H]2N)nc1Nc1cccc(-n2nccn2)c1
In short: as §1

[8] = compound: O=C1NC(=O)C(c2cnc3ccccn23)=C1c1cn2c3c(cc(F)cc13)CN(C(=O)N1CCCCC1)CC2
In short: as §1

Measured: log2 fold change

DEPDC1B (UniProt Q8WUY9)
inactive: nilotinib 0.023 | [1] 0.02 | dasatinib -0.448 | [2] 0.015 | [3] 0.113 | tipifarnib -0.17 | [4] 0.109 | entospletinib 0.225

DENND5B isoform 2 (UniProt Q6ZUT9)
inactive: nilotinib -0.142 | [1] 0.069 | dasatinib -0.026 | [2] -0.063 | [3] -0.057 | tipifarnib -0.092 | [5] -0.107 | vorinostat 0.043 | silmitasertib 0.093

DDOST (UniProt P39656)
inactive: nilotinib -0.036 | [1] 0.014 | dasatinib -0.013 | [2] -0.031 | [3] -0.001 | quisinostat -0.07 | tipifarnib -0.079 | [6] -0.01 | [7] 0.019 | [5] -0.041 | [4] 0.019 | vorinostat 0.104 | silmitasertib -0.005 | [8] 0.005 | entospletinib -0.027

DCUN1D3 (UniProt Q8IWE4)
inactive: nilotinib -0.012 | [1] 0.07 | dasatinib -0.143 | [2] -0.031 | [3] -0.104 | tipifarnib 0.029 | entospletinib 0.106

DBF4 (UniProt Q9UBU7)
inactive: nilotinib 0.05 | [1] 0 | dasatinib 0.091 | [2] 0.17 | [3] -0.021 | quisinostat 0.038 | tipifarnib -0.146 | [6] 0.043 | [5] 0.07 | [4] 0.059 | vorinostat -0.226 | silmitasertib -0.138 | [8] 0.028 | entospletinib 0.002

Fetched one by one from above (2):
DDOST (UniProt P39656)
inactive: nilotinib -0.036 | [1] 0.014 | dasatinib -0.013 | [2] -0.031 | [3] -0.001 | quisinostat -0.07 | tipifarnib -0.079 | [6] -0.01 | [7] 0.019 | [5] -0.041 | [4] 0.019 | vorinostat 0.104 | silmitasertib -0.005 | [8] 0.005 | entospletinib -0.027

DBF4 (UniProt Q9UBU7)
inactive: nilotinib 0.05 | [1] 0 | dasatinib 0.091 | [2] 0.17 | [3] -0.021 | quisinostat 0.038 | tipifarnib -0.146 | [6] 0.043 | [5] 0.07 | [4] 0.059 | vorinostat -0.226 | silmitasertib -0.138 | [8] 0.028 | entospletinib 0.002

Additional records follow.

DDIT3 isoform 2 (UniProt P35638)
inactive: nilotinib -0.007 | [1] 0.14 | [2] -0.031 | quisinostat -0.164 | tipifarnib -0.02 | [6] -0.026 | [4] 0.05 | [8] 0.005 | entospletinib 0.099

DCAF12 (UniProt Q5T6F0)
inactive: nilotinib -0.07 | [1] 0.108 | dasatinib -0.057 | [2] -0.047 | [3] 0.061 | quisinostat -0.146 | tipifarnib 0.209 | [6] 0.06 | [5] -0.032 | [4] 0.006 | vorinostat -0.067 | silmitasertib -0.02 | [8] 0.072 | entospletinib -0.144

CZIB (UniProt Q9NWV4)
inactive: nilotinib -0.017 | [1] 0.039 | dasatinib 0.029 | [2] -0.006 | [3] 0.008 | quisinostat 0.043 | tipifarnib -0.048 | [6] -0.038 | [7] -0.029 | [5] 0.015 | [4] 0.009 | vorinostat 0.112 | silmitasertib -0.026 | [8] -0.033 | entospletinib 0.008

DCAF1 (UniProt Q9Y4B6)
inactive: nilotinib -0.001 | [1] 0.006 | dasatinib -0.018 | [2] -0.031 | [3] -0.019 | quisinostat -0.022 | tipifarnib 0.007 | [6] 0.025 | [7] 0.023 | [5] 0 | [4] 0.005 | vorinostat -0.092 | silmitasertib -0.012 | [8] -0.008 | entospletinib 0.005

DDX20 (UniProt Q9UHI6)
active: vorinostat -0.348
inactive: nilotinib -0.009 | [1] 0.008 | dasatinib -0.054 | [2] 0.003 | [3] 0.058 | quisinostat -0.058 | tipifarnib -0.01 | [6] 0.095 | [7] 0.03 | [5] -0.024 | [4] 0.007 | silmitasertib 0.069 | [8] 0.022 | entospletinib -0.008

DEUP1 (UniProt Q05D60)
inactive: nilotinib -0.106 | [1] -0.002 | dasatinib 0.029 | [2] 0.191 | [3] -0.091 | quisinostat -0.064 | tipifarnib 0.12 | [6] -0.025 | [7] 0.245 | [5] -0.397 | vorinostat 0.219 | silmitasertib -0.189 | [8] 0.153 | entospletinib -0.073

DAG1 (UniProt Q14118)
inactive: nilotinib 0.058 | [1] 0.078 | dasatinib 0.014 | [2] 0.04 | [3] -0.051 | quisinostat -0.052 | tipifarnib 0.013 | [6] 0.068 | [7] 0.016 | [5] -0.034 | [4] -0.057 | vorinostat 0.058 | silmitasertib 0 | [8] 0.006 | entospletinib -0.039

DDX4 (UniProt Q9NQI0)
inactive: nilotinib -0.108 | [1] 0.043 | dasatinib 0.014 | [2] -0.085 | [3] 0.076 | tipifarnib 0.028 | [7] 0.062 | [5] 0.059 | [4] 0.019 | vorinostat -0.213 | silmitasertib 0.101 | entospletinib 0.011

DEPDC5 (UniProt O75140)
inactive: nilotinib -0.149 | [1] 0.33 | [2] 0.024 | tipifarnib 0.039 | [5] -0.014 | [4] 0.049 | vorinostat -0.037 | silmitasertib 0.009

DAPK2 isoform 2 (UniProt Q9UIK4)
inactive: [7] 0.021 | [5] 0.084 | [4] 0.285 | vorinostat -0.185 | silmitasertib 0.464

DET1 isoform 2 (UniProt Q7L5Y6)
inactive: quisinostat -0.031 | [6] 0.067 | [7] -0.16 | [5] -0.096 | vorinostat 0.299 | silmitasertib 0.107 | [8] 0.009

DEAF1 (UniProt O75398)
inactive: dasatinib -0.138 | [3] -0.202 | entospletinib -0.003

DAPK3 (UniProt O43293)
inactive: [7] 0.008 | [4] 0.575

DCAF17 (UniProt Q5H9S7)
inactive: nilotinib -0.292 | [1] -0.147 | [2] 0.073 | tipifarnib 0.097 | [7] -0.012

DESI2 (UniProt Q9BSY9)
inactive: [4] 0.155 | entospletinib 0.116

DDB1 isoform 2 (UniProt Q16531)
inactive: [7] -0.168

DEF8 (UniProt Q6ZN54)
inactive: dasatinib 0.035 | [3] 0.026 | quisinostat -0.123 | [6] 0.056 | [5] 0.013 | [4] 0.023 | vorinostat -0.059 | silmitasertib -0.004 | [8] 0.005 | entospletinib 0.052

DCP1B (UniProt Q8IZD4)
inactive: dasatinib -0.097 | [3] 0.133 | quisinostat 0.019 | [6] 0.115 | [5] 0.082 | [4] 0.011 | vorinostat -0.301 | silmitasertib 0.105 | [8] 0.096 | entospletinib -0.15

DDX60L (UniProt Q5H9U9)
inactive: dasatinib -0.016 | [3] 0.08 | [7] 0.046

DDX19A isoform 2 (UniProt Q9NUU7)
inactive: quisinostat -0.613 | [6] 0.053 | [8] 0.189

DCBLD1 (UniProt Q8N8Z6)
inactive: dasatinib 0.144 | [3] -0.041 | [7] 0.116 | entospletinib -0.041

DDAH1 (UniProt O94760)
inactive: dasatinib -0.244 | [3] 0.174 | quisinostat -0.013 | [6] -0.003 | [7] -0.034 | [5] -0.016 | [4] -0.076 | vorinostat 0.07 | silmitasertib -0.035 | [8] 0.017 | entospletinib -0.014

DCAF5 (UniProt Q96JK2)
inactive: dasatinib -0.046 | [3] 0.037 | quisinostat 0.057 | [6] 0.064 | [4] 0 | [8] -0.078

DCUN1D1 (UniProt C9JVE2)
inactive: dasatinib 0.142 | [3] -0.011 | quisinostat -0.414 | [6] 0.139 | [7] -0.114 | [5] -0.228 | vorinostat 0.125 | silmitasertib -0.092 | [8] 0.371 | entospletinib 0.129

DCAKD (UniProt Q8WVC6)
inactive: nilotinib 0.076 | [1] -0.056 | [2] -0.152 | tipifarnib 0.276 | [4] 0.003

DAAM1 (UniProt Q9Y4D1)
inactive: dasatinib 0.425 | [3] -0.174 | quisinostat 0.032 | [6] -0.054 | [7] -0.055 | [5] -0.216 | [4] 0.024 | vorinostat 0.072 | silmitasertib 0.011 | [8] 0.118

CYP2S1 isoform 2 (UniProt Q96SQ9)
inactive: dasatinib 0.116 | [3] 0.093 | quisinostat 0.014 | [6] -0.135 | [7] 0.054 | [5] -0.056 | [4] 0.014 | vorinostat 0.067 | silmitasertib -0.027 | [8] -0.025 | entospletinib 0.055

CYP4V2 (UniProt Q6ZWL3)
inactive: dasatinib -0.041 | [3] 0.049 | quisinostat 0.103 | [6] -0.026 | [7] -0.101 | [5] -0.033 | vorinostat 0.055 | silmitasertib -0.038 | [8] 0.034

DDX39B (UniProt H0Y400)
inactive: [7] -0.177

DEPDC7 (UniProt Q96QD5)
inactive: nilotinib -0.021 | [1] -0.181 | [2] 0.27 | tipifarnib -0.269 | entospletinib 0.052
